Measurements as given in the supplement of paper PMC8728848.
This is one part of the list.

Key:
Assay in all cases: glycan array binding signal (z-score within array); higher = stronger binding
Settings in all cases: glycan notation: IUPAC condensed, linker removed
[1] = target: Neu5Ac(a2-3)Gal(b1-3)GlcNAc(b1-2)Man
In short: (§1)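 Glycan array data were curated from 3228 arrays in the Consortium for Functional Glycomics database and kept only where the protein sequence was available. Glycan names were converted to IUPAC-condensed notation, and columns mapping to the same glycan were averaged. The binding signal is a within-array Z-score, averaged across arrays of the same protein sequence at different concentrations or buffers and across linkers. Negative Z-scores can be read as non-binding.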

[2] = target: Neu5Ac(a2-3)Gal(b1-3)GlcNAc(b1-2)Man(a1-3)[GlcNAc(b1-4)][Neu5Ac(a2-3)Gal(b1-3)GlcNAc(b1-2)Man(a1-6)]Man(b1-4)GlcNAc(b1-4)GlcNAc
In short: as §1

[3] = target: Neu5Ac(a2-3)Gal(b1-3)GlcNAc(b1-2)Man(a1-3)[Neu5Ac(a2-3)Gal(b1-3)GlcNAc(b1-2)Man(a1-6)]Man(b1-4)GlcNAc(b1-4)GlcNAc
In short: as §1

[4] = target: Neu5Ac(a2-3)Gal(b1-3)GlcNAc(b1-3)Gal(b1-3)GlcNAc
In short: as §1

[5] = target: Neu5Ac(a2-3)Gal(b1-3)GlcNAc(b1-3)Gal(b1-4)GlcNAc
In short: as §1

[6] = target: Neu5Ac(a2-3)Gal(b1-3)GlcNAc(b1-3)GalNAc
In short: as §1

[7] = target: Neu5Ac(a2-3)Gal(b1-3)GlcNAc(b1-4)Gal(b1-4)Glc
In short: as §1

[8] = target: Neu5Ac(a2-3)Gal(b1-3)GlcNAc(b1-6)GalNAc
In short: as §1

[9] = target: Neu5Ac(a2-3)Gal(b1-3)GlcNAc6S
In short: as §1

[10] = target: Neu5Ac(a2-3)Gal(b1-3)[Fuc(a1-4)]GlcNAc
In short: as §1

[11] = target: Neu5Ac(a2-3)Gal(b1-3)[Fuc(a1-4)]GlcNAc(b1-3)Gal(b1-3)[Fuc(a1-4)]GlcNAc
In short: as §1

[12] = target: Neu5Ac(a2-3)Gal(b1-3)[Fuc(a1-4)]GlcNAc(b1-3)Gal(b1-4)[Fuc(a1-3)]GlcNAc
In short: as §1

[13] = target: Neu5Ac(a2-3)Gal(b1-3)[GlcNAc(b1-6)]GalNAc
In short: as §1

[14] = target: Neu5Ac(a2-3)Gal(b1-3)[Neu5Ac(a2-6)]GalNAc
In short: as §1

[15] = target: Neu5Ac(a2-3)Gal(b1-3)[Neu5Ac(a2-6)]GlcNAc(b1-3)[Fuc(a1-3)[Gal(b1-4)]GlcNAc(b1-6)]Gal(b1-4)Glc
In short: as §1

[16] = target: Neu5Ac(a2-3)Gal(b1-3)]Neu5Ac(a2-3)Gal(b1-4)]GlcNAc
In short: as §1

Neu5Ac(a2-3)Gal(b1-4)Glc = target: Neu5Ac(a2-3)Gal(b1-4)Glc
In short: as §1

[17] = target: Neu5Ac(a2-3)Gal(b1-4)GlcNAc
In short: as §1

[18] = target: Neu5Ac(a2-3)Gal(b1-4)GlcNAc(b1-2)Man
In short: as §1

[19] = target: Neu5Ac(a2-3)Gal(b1-4)GlcNAc(b1-2)Man(a1-3)[GlcNAc(b1-4)][Neu5Ac(a2-3)Gal(b1-4)GlcNAc(b1-2)Man(a1-6)]Man(b1-4)GlcNAc(b1-4)GlcNAc
In short: as §1

[20] = target: Neu5Ac(a2-3)Gal(b1-4)GlcNAc(b1-2)Man(a1-3)[Neu5Ac(a2-3)Gal(b1-4)GlcNAc(b1-2)Man(a1-6)]Man(b1-4)GlcNAc(b1-4)GlcNAc
In short: as §1

[21] = target: Neu5Ac(a2-3)Gal(b1-4)GlcNAc(b1-2)Man(a1-3)[Neu5Ac(a2-3)Gal(b1-4)GlcNAc(b1-2)Man(a1-6)]Man(b1-4)GlcNAc(b1-4)[Fuc(a1-6)]GlcNAc
In short: as §1

[22] = target: Neu5Ac(a2-3)Gal(b1-4)GlcNAc(b1-2)Man(a1-3)[Neu5Ac(a2-6)Gal(b1-4)GlcNAc(b1-2)Man(a1-6)]Man(b1-4)GlcNAc(b1-4)GlcNAc
In short: as §1

[23] = target: Neu5Ac(a2-3)Gal(b1-4)GlcNAc(b1-2)[Neu5Ac(a2-3)Gal(b1-4)GlcNAc(b1-4)]Man(a1-3)[GlcNAc(b1-4)][Neu5Ac(a2-3)Gal(b1-4)GlcNAc(b1-2)[Neu5Ac(a2-3)Gal(b1-4)GlcNAc(b1-6)]Man(a1-6)]Man(b1-4)GlcNAc(b1-4)GlcNAc
In short: as §1

[24] = target: Neu5Ac(a2-3)Gal(b1-4)GlcNAc(b1-2)[Neu5Ac(a2-3)Gal(b1-4)GlcNAc(b1-4)]Man(a1-3)[GlcNAc(b1-4)][Neu5Ac(a2-3)Gal(b1-4)GlcNAc(b1-4)Man(a1-6)]Man(b1-4)GlcNAc(b1-4)GlcNAc
In short: as §1

[25] = target: Neu5Ac(a2-3)Gal(b1-4)GlcNAc(b1-2)[Neu5Ac(a2-3)Gal(b1-4)GlcNAc(b1-6)]Man(a1-6)[Neu5Ac(a2-3)Gal(b1-4)GlcNAc(b1-2)Man(a1-3)]Man(b1-4)GlcNAc(b1-4)GlcNAc
In short: as §1

[26] = target: Neu5Ac(a2-3)Gal(b1-4)GlcNAc(b1-2)[Neu5Ac(a2-3)Gal(b1-4)GlcNAc(b1-6)]Man(a1-6)[Neu5Ac(a2-3)Gal(b1-4)GlcNAc(b1-2)Man(a1-3)][GlcNAc(b1-4)]Man(b1-4)GlcNAc(b1-4)GlcNAc
In short: as §1

[27] = target: Neu5Ac(a2-3)Gal(b1-4)GlcNAc(b1-3)Gal
In short: as §1

[28] = target: Neu5Ac(a2-3)Gal(b1-4)GlcNAc(b1-3)Gal(b1-3)GlcNAc
In short: as §1

[29] = target: Neu5Ac(a2-3)Gal(b1-4)GlcNAc(b1-3)Gal(b1-4)GlcNAc
In short: as §1

[30] = target: Neu5Ac(a2-3)Gal(b1-4)GlcNAc(b1-3)Gal(b1-4)GlcNAc(b1-2)Man(a1-3)[Neu5Ac(a2-3)Gal(b1-4)GlcNAc(b1-3)Gal(b1-4)GlcNAc(b1-2)Man(a1-6)]Man(b1-4)GlcNAc(b1-4)GlcNAc
In short: as §1

[31] = target: Neu5Ac(a2-3)Gal(b1-4)GlcNAc(b1-3)Gal(b1-4)GlcNAc(b1-3)Gal(b1-4)GlcNAc
In short: as §1

[32] = target: Neu5Ac(a2-3)Gal(b1-4)GlcNAc(b1-3)Gal(b1-4)GlcNAc(b1-3)Gal(b1-4)GlcNAc(b1-2)Man(a1-3)[Neu5Ac(a2-3)Gal(b1-4)GlcNAc(b1-3)Gal(b1-4)GlcNAc(b1-3)Gal(b1-4)GlcNAc(b1-2)Man(a1-6)]GalNAc
In short: as §1

[33] = target: Neu5Ac(a2-3)Gal(b1-4)GlcNAc(b1-3)Gal(b1-4)GlcNAc(b1-3)GalNAc
In short: as §1

[34] = target: Neu5Ac(a2-3)Gal(b1-4)GlcNAc(b1-3)Gal(b1-4)GlcNAc(b1-3)[Neu5Ac(a2-3)Gal(b1-4)GlcNAc(b1-3)Gal(b1-4)GlcNAc(b1-6)]GalNAc
In short: as §1

[35] = target: Neu5Ac(a2-3)Gal(b1-4)GlcNAc(b1-3)Gal(b1-4)GlcNAc(b1-6)[Gal(b1-3)]GalNAc
In short: as §1

[36] = target: Neu5Ac(a2-3)Gal(b1-4)GlcNAc(b1-3)Gal(b1-4)[Fuc(a1-3)]GlcNAc
In short: as §1

[37] = target: Neu5Ac(a2-3)Gal(b1-4)GlcNAc(b1-3)GalNAc
In short: as §1

B1: AT1G77380(17) (Arabidopsis thaliana), Q39134 (protein)
chain: MVQNHQTVLAVDMPQTGGSKYLDDDGKNKRTGSVWTASAHIITAVIGSGVLSLAWATAQLGWLAGPVVMLLFSAVTYFTSSLLAACYRSGDPISGKRNYTYMDAVRSNLGGVKVTLCGIVQYLNIFGVAIGYTIASAISMMAIKRSNCFHKSGGKDPCHMNSNPYMIAFGLVQILFSQIPDFDQLWWLSILAAVMSFTYSSAGLALGIAQVVVNGKVKGSLTGISIGAVTETQKIWRTFQALGDIAFAYSYSIILIEIQDTVKSPPSEEKTMKKATLVSVSVTTMFYMLCGCMGYAAFGDLSPGNLLTGFGFYNPYWLLDIANAAIVIHLIGAYQVYCQPLFAFIEKQASIQFPDSEFIAKDIKIPIPGFKPLRLNVFRLIWRTVFVIITTVISMLLPFFNDVVGLLGALGFWPLTVYFPVEMYIAQKKIPRWSTRWVCLQVFSLGCLVVSIAAAAGSIAGVLLDLKSYKPFRSEY
- glycan array binding signal (z-score) [1]: -0.099
- glycan array binding signal (z-score) [2]: -0.84
- glycan array binding signal (z-score) [3]: -0.809
- glycan array binding signal (z-score) [4]: 0.368
- glycan array binding signal (z-score) [5]: -0.586
- glycan array binding signal (z-score) [6]: -0.258
- glycan array binding signal (z-score) [7]: -0.757
- glycan array binding signal (z-score) [8]: -0.863
- glycan array binding signal (z-score) [9]: 0.954
- glycan array binding signal (z-score) [10]: 0.003
- glycan array binding signal (z-score) [11]: 0.279
- glycan array binding signal (z-score) [12]: -0.858
- glycan array binding signal (z-score) [13]: -1.04
- glycan array binding signal (z-score) [14]: 0.576
- glycan array binding signal (z-score) [15]: -0.596
- glycan array binding signal (z-score) [16]: -0.782
- glycan array binding signal (z-score) (Neu5Ac(a2-3)Gal(b1-4)Glc): -0.582
- glycan array binding signal (z-score) [17]: -0.519
- glycan array binding signal (z-score) [18]: 0.711
- glycan array binding signal (z-score) [19]: -0.679
- glycan array binding signal (z-score) [20]: -0.868
- glycan array binding signal (z-score) [21]: -0.828
- glycan array binding signal (z-score) [22]: -0.842
- glycan array binding signal (z-score) [23]: -0.786
- glycan array binding signal (z-score) [24]: -0.745
- glycan array binding signal (z-score) [25]: -0.538
- glycan array binding signal (z-score) [26]: -0.583
- glycan array binding signal (z-score) [27]: 0.033
- glycan array binding signal (z-score) [28]: -1.04
- glycan array binding signal (z-score) [29]: 0.014
- glycan array binding signal (z-score) [30]: -0.03
- glycan array binding signal (z-score) [31]: -0.676
- glycan array binding signal (z-score) [32]: -0.742
- glycan array binding signal (z-score) [33]: -0.322
- glycan array binding signal (z-score) [34]: -0.709
- glycan array binding signal (z-score) [35]: 0.288
- glycan array binding signal (z-score) [36]: -0.571
- glycan array binding signal (z-score) [37]: 0.512
